B1: Asx COOH terminal residues 1200-1501, E(z)/Trx SET domain interaction site 2 (AsxETSI-2), 35S-labelled, in vitro translated (domain or fragment, UniProt Q9V727 1200-1501)
chain: MQQLPNVLTMKTLPPSGVPTTIAQQRLQPKMPTGKGRKATSNRLPPGAVNLERSYQICQAVIQNSPNRENLKAQLRPPAAILNQHQPTTTTAPAPINPVTLNVSTVAATPMSNITTATGSMAAAVAAAPPQNVLKQEELLVSGAVGAGALPAGLPPNVMGVGRPGVYKVIGPRMSGFPRKKYVQRKPSPTTLIRHVFSPGPGGATATAQQLQMLQQHHQSTTSPVPVQNPQQPAPEQLIHQNGNGQYVLVHRANVGAADNQAPRASSAPPMHQNQFVTVQNPLHSINGIPMGGRGRPASVDT
modifications: 35S-methionine labelled
B2: Asx deletion fragment A(1381-1501), 35S-labelled, in vitro translated (domain or fragment, UniProt Q9V727 1381-1501)
chain: YVQRKPSPTTLIRHVFSPGPGGATATAQQLQMLQQHHQSTTSPVPVQNPQQPAPEQLIHQNGNGQYVLVHRANVGAADNQAPRASSAPPMHQNQFVTVQNPLHSINGIPMGGRGRPASVDT
modifications: 35S-methionine labelled
B3: Asx deletion fragment A(200-354), 35S-labelled, in vitro translated (domain or fragment, UniProt Q9V727 200-354)
chain: AQIEQTKDGKIDLETPDSILASTNLRALLNKQTFSLLPPLYQYNLIQLLPSVDREASELEQPSSSASGGSPSEAIRLSASCLNNEFFARACLEWRERLSEGEFTPENQLKLKTEAEREKNKLDPWKLKHFEPFWGEKNSRGKDKDKLESDCKNQK
modifications: 35S-methionine labelled
B4: Asx COOH terminal deletion mutant A(1-1200), 35S-labelled, in vitro translated (domain or fragment, UniProt Q9V727 1-1200)
chain: MKTITPDTTTTTSSQHQQLLIPQADQHHQPMLQQQSLLAAPPPTMIMEHVNLVDDDEKDPLALEQLEVSPSTKHTHSLRRHLPRIIVKPIPPEKKPMAPSEEAAVSTAPAPPTRLICSRRIQQQQQVKAAAAAAAAAAAAAAAAAAAAQAQATSSYPSAISPGSKAGTSQASTMREVLASIPGFSVKPRRRSNKKLTTAAQIEQTKDGKIDLETPDSILASTNLRALLNKQTFSLLPPLYQYNLIQLLPSVDREASELEQPSSSASGGSPSEAIRLSASCLNNEFFARACLEWRERLSEGEFTPENQLKLKTEAEREKNKLDPWKLKHFEPFWGEKNSRGKDKDKLESDCKNQKLSASIKSEPKPPATSQQKPLQQATCDNETELKFDLSTKCETTSAKTTVAVAVADKSSTFPPTGSQNNVLNEQQRRVLKRPSSSPSQRKQAPTTIATINLDDDLDELPSTSKDSKQPKMDEIVPNASGNVVAAPMVDVVDHSAVEMKIKDEQQHQRQHQPLINSTCDKIEPSECSKEMIVAMKQVDSKEDVDSIASAAAMPAIAAVTPHTPKPEALAPNPDVANQFVSYLQNVELAAETKAPLDNSNEADITTGTNSHDFVFSDTIDHAYFQEHQSTINHNFFTSSSSSNTATTAANKLEEHSDKPEDSPLPIASSISGSTPASSITSTSCTSSSSSSASMSSSCSSSNSGSTTTAPTTSSSAGAPTAPLTLAAAAETTLANVQAMLSTVAKLQQQQQELPVELNSNEMYQHVQHDWNFGDIKLSSSQSSGDQQRNLSHEAIDLMDVVQDADVIDDIMHNDVCHDVLGDEDEGDQEEDEDDEVVECMTEEQQLIDEDSEAVREIVDKLQQHQQQQNQQQHHQQLHIQDVVQLAQHSFMPQAHSEFGNDIGQEMLCDAVPMSAAEMEVSSTVITNSSNSNDSSNNISLCSSTNSLTINQMPHQASQQPQQNAQSNAQQQRQILVDSNGQIIGNFLLQQQRQQQQQQLLQQFTLQAAAAQQQQQQQQQHQQQQQQQQQATSSNSLGKTLPVALRNGTQQFLSPNLIAQQHQQQQQQQLEQHQQQATAQQKHQQIQQFALQQAQLHQRQLLAQAANNNLLQQQQQQQQNVALPTTQAKFIAKPLNIISMTRPANASPTTAATTANTASIPSAYANVVAVTGAQQQQSPPVPAPQQQTVQQQQLANHNSNM
modifications: 35S-methionine labelled
B5: Asx COOH terminal residues 1501-1669, Trx SET domain interaction site (AsxTSI), 35S-labelled, in vitro translated (domain or fragment, UniProt Q9V727 1501-1669)
chain: TTAGSGNVIAPPISATDALHHHHHEMQQQQQHQQPQPLGNVGAAANIVRRNIAAGPNIAYIDGSNTNSSAVALMEAGNNYIVTTNASPTAAPSPINQQPQSQPTGTQHQHPLLQLHQTGENTPPGNEATATANNCACSLNAMVICQQCGAFCHDDCIGAAKLCVACVIR
modifications: 35S-methionine labelled
B6: Asx deletion fragment A(1-200), 35S-labelled, in vitro translated (domain or fragment, UniProt Q9V727 1-200)
chain: MKTITPDTTTTTSSQHQQLLIPQADQHHQPMLQQQSLLAAPPPTMIMEHVNLVDDDEKDPLALEQLEVSPSTKHTHSLRRHLPRIIVKPIPPEKKPMAPSEEAAVSTAPAPPTRLICSRRIQQQQQVKAAAAAAAAAAAAAAAAAAAAQAQATSSYPSAISPGSKAGTSQASTMREVLASIPGFSVKPRRRSNKKLTTAA
modifications: 35S-methionine labelled

These are yes or no findings as the source states them, for the method shown. Binding seen in cells or lysates may run through a third protein. Binding can be weak; no strength is given.

The target of this assay is GST fusion of the SET domain of Trithorax, GST-TrxSET (Drosophila). Put plainly: pull-down; 1 μg GST-E(z)SET or GST-TrxSET immobilised on GSH-agarose, mixed 2 h at 4 °C with pre-cleared reticulocyte lysate holding 35S-Asx or its deletion fragments; washes with 0.6 M NaCl, pH 7.9; SDS-PAGE and autoradiography, densitometry relative to GST; only the target purified.
Take B1: the binding result is “binds”.

In the case of B2, the binding result is “no binding”.

On to B3, for which the binding entry is “no binding”.

For B4, the binding result is given as “no binding”.

On to B5, for which the binding result is recorded as “binds weakly”.

As for B6, the binding result was “no binding”.

The values above are taken from publication PMC5605996.
